## Drug screen on melanoma cell lines: apoptosis marker

Source: doi:10.1371/journal.pone.0140310, primary screening data, rounded.

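Human melanoma cell lines in 1,536-well plates were treated with two drugs together for 72 h, then fixed, stained and imaged. Each value is the cleaved-PARP-positive fraction of nuclei relative to DMSO-treated wells, in %, so that 100 equals the control and higher values mean more apoptosis. Concentrations were fixed for each drug; these are the higher of two levels. The file gives one value for each pair and line, without errors, so small differences may be noise. Basal and induced levels differ widely between cell lines.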
Only some of the drugs and lines screened are listed, without regard to their results.
A dash means that no value is listed here.

Drugs:
NVP-TAE684, 0.4 µM: COc1cc(N2CCC(N3CCN(C)CC3)CC2)ccc1Nc1ncc(Cl)c(Nc2ccccc2S(=O)(=O)C(C)C)n1
perifosine, 2 µM: CCCCCCCCCCCCCCCCCCOP(=O)([O-])OC1CC[N+](C)(C)CC1
JZL184, 5 µM: O=C(Oc1ccc([N+](=O)[O-])cc1)N1CCC(C(O)(c2ccc3c(c2)OCO3)c2ccc3c(c2)OCO3)CC1
embelin, 6 µM: CCCCCCCCCCCC1=C(O)C(=O)C=C(O)C1=O
sorafenib, 2 µM: CNC(=O)c1cc(Oc2ccc(NC(=O)Nc3ccc(Cl)c(C(F)(F)F)c3)cc2)ccn1
KU-55933, 5 µM: O=c1cc(-c2cccc3c2Sc2ccccc2S3)oc(N2CCOCC2)c1
CHIR-265, 0.4 µM: Cn1c(Nc2ccc(C(F)(F)F)cc2)nc2cc(Oc3ccnc(-c4ncc(C(F)(F)F)[nH]4)c3)ccc21
FK866, 0.05 µM: O=C(/C=C/c1cccnc1)NCCCCC1CCN(C(=O)c2ccccc2)CC1
SU6656, 2 µM: CN(C)S(=O)(=O)c1ccc2c(c1)/C(=C/c1cc3c([nH]1)CCCC3)C(=O)N2

| # | Drugs | SK-MEL-2 | UACC-257 | MZ2-MEL | WM1745 | C32 | WM3526 | COLO 829 | MEL-HO | SK-MEL-30 | LOX IMVI | WM115 | UACC-62 | WM451Lu | RPMI-7951 | MeWo |
|---|---|---|---|---|---|---|---|---|---|---|---|---|---|---|---|---|
| 1 | embelin + SU6656 | 107 | 29.7 | 94.3 | 192 | 114 | 133 | 87.2 | 111 | 127 | 120 | 214 | 70.9 | 148 | 213 | 78.5 |
| 2 | KU-55933 + sorafenib | 102 | 56.8 | 119 | - | 95.2 | 179 | 45.7 | 173 | 96.2 | 154 | 57.6 | 196 | 222 | 56.4 | 90.3 |
| 3 | embelin + perifosine | 64.7 | 30.5 | 16.4 | - | 146 | 101 | 34.1 | 266 | 73.3 | 77.8 | 231 | 218 | 39.9 | 233 | 108 |
| 4 | KU-55933 + perifosine | 73.8 | 30.5 | 112 | - | 68.6 | 82.3 | 173 | 112 | 93.6 | 77.0 | 219 | 174 | 40.3 | 313 | 80.8 |
| 5 | perifosine + SU6656 | 64.0 | 163 | 350 | 128 | 171 | 177 | 133 | 148 | 69.6 | 48.6 | 284 | 82.2 | 188 | 570 | 166 |
| 6 | sorafenib + FK866 | 3430 | 45.1 | 916 | 97.3 | 115 | 146 | 448 | 159 | 63.9 | 12.2 | 202 | 225 | 84.3 | 280 | 66.6 |
| 7 | perifosine + CHIR-265 | 242 | 22.7 | 167 | 179 | 408 | 839 | 182 | 114 | 151 | 159 | 1040 | 333 | 93.4 | 190 | 108 |
| 8 | FK866 + NVP-TAE684 | 505 | 54.2 | 663 | - | 85.0 | 242 | 447 | 495 | 57.4 | 72.5 | 124 | 187 | 66.9 | 42.7 | 51.0 |
| 9 | NVP-TAE684 + KU-55933 | 174 | 40.3 | 117 | 219 | 126 | 105 | 128 | 56.2 | 59.5 | 115 | 113 | 276 | 39.5 | 171 | 108 |
| 10 | perifosine + NVP-TAE684 | 186 | 67.9 | 93.0 | - | 81.6 | 159 | 74.7 | 288 | 89.8 | 50.4 | 182 | 403 | 84.4 | 432 | 125 |
| 11 | CHIR-265 + SU6656 | 208 | 114 | 1920 | 229 | 966 | 1360 | 172 | 94.7 | 192 | 110 | 1370 | 184 | 957 | 526 | 151 |
| 12 | JZL184 + sorafenib | 75.6 | 75.7 | 108 | - | 88.3 | 121 | 41.3 | 84.1 | 177 | 170 | 69.0 | 113 | 142 | 54.8 | 115 |
| 13 | NVP-TAE684 + JZL184 | 263 | 47.6 | 58.6 | 211 | 151 | 120 | 196 | 34.0 | 117 | 109 | 224 | 394 | 36.7 | 95.3 | 157 |
| 14 | embelin + NVP-TAE684 | 116 | 31.4 | 135 | 173 | 108 | 64.4 | 110 | 88.7 | 44.2 | 195 | 139 | 67.4 | 455 | 145 | 164 |
| 15 | CHIR-265 + embelin | 212 | 55.5 | 317 | 178 | 271 | 468 | 408 | 38.2 | 138 | 120 | 245 | 1360 | 212 | 102 | 147 |
| 16 | CHIR-265 + NVP-TAE684 | 640 | 50.4 | 244 | 313 | 223 | 762 | 149 | 226 | 177 | 109 | 785 | 492 | 638 | 132 | 306 |
| 17 | embelin + sorafenib | 118 | 102 | 116 | - | 79.2 | 74.1 | 150 | 116 | 127 | 142 | 99.8 | 104 | 45.1 | 46.9 | 111 |
| 18 | perifosine + sorafenib | 246 | 28.2 | 221 | 189 | 61.7 | 98.8 | 95.8 | 56.5 | 73.0 | 88.6 | 31.6 | 20.5 | 64.0 | 28.0 | 45.6 |
| 19 | sorafenib + CHIR-265 | 123 | 64.2 | 224 | 152 | 152 | 508 | 338 | 56.4 | 157 | 128 | 331 | 327 | 598 | 481 | 181 |
| 20 | sorafenib + SU6656 | 92.2 | 78.2 | 217 | 157 | 342 | 202 | 116 | 95.3 | 146 | 57.3 | 168 | 104 | 38.5 | 248 | 110 |
| 21 | SU6656 + NVP-TAE684 | 108 | 41.3 | 181 | 474 | 139 | 161 | 136 | 58.0 | 48.1 | 117 | 383 | 978 | 258 | 190 | 103 |
| 22 | JZL184 + CHIR-265 | 308 | 117 | 126 | 155 | 202 | 273 | 280 | 66.5 | 252 | 135 | 462 | 171 | 240 | 113 | 56.4 |
| 23 | KU-55933 + embelin | 129 | 21.8 | - | 144 | 81.0 | 101 | 114 | 62.0 | 71.4 | 271 | 113 | 45.9 | 31.8 | 163 | 49.7 |
| 24 | SU6656 + FK866 | 2030 | 42.1 | 965 | 98.8 | 137 | 99.5 | 938 | 157 | 44.7 | 85.5 | 337 | 138 | 122 | 320 | 113 |
| 25 | KU-55933 + SU6656 | 119 | 21.5 | 283 | 158 | 112 | 131 | 111 | 31.0 | 51.7 | 86.0 | 117 | 56.7 | 113 | 158 | 151 |
| 26 | perifosine + FK866 | 2500 | 36.5 | 551 | 165 | 244 | 53.1 | 595 | 172 | 72.4 | 44.1 | 115 | 67.9 | 121 | 166 | 76.9 |
| 27 | FK866 + KU-55933 | 1140 | 54.3 | 1260 | - | 74.2 | 118 | 334 | 220 | 87.3 | 131 | 198 | 154 | 68.3 | 143 | 22.3 |
| 28 | FK866 + embelin | 649 | 31.5 | 64.5 | - | 90.7 | 105 | 258 | 121 | 85.4 | 43.5 | 61.2 | 106 | 99.0 | 153 | 31.8 |
| 29 | embelin + JZL184 | 66.4 | 48.3 | 40.6 | 126 | 90.4 | 50.6 | 74.5 | 59.9 | 69.6 | 111 | 105 | 56.0 | 107 | 296 | 63.2 |
| 30 | JZL184 + KU-55933 | 136 | 48.4 | 61.5 | 102 | 95.1 | 149 | 85.4 | 109 | 179 | 83.6 | 102 | 160 | 97.8 | 91.8 | 163 |
| 31 | FK866 + CHIR-265 | 1370 | 100 | 326 | 147 | 284 | 507 | 349 | 511 | 77.3 | 166 | 280 | 495 | 239 | 152 | 297 |

For reference, 2 entries once more:

| Drugs | SK-MEL-2 | UACC-257 | MZ2-MEL | WM1745 | C32 | WM3526 | COLO 829 | MEL-HO | SK-MEL-30 | LOX IMVI | WM115 | UACC-62 | WM451Lu | RPMI-7951 | MeWo |
|---|---|---|---|---|---|---|---|---|---|---|---|---|---|---|---|
| sorafenib + CHIR-265 | 123 | 64.2 | 224 | 152 | 152 | 508 | 338 | 56.4 | 157 | 128 | 331 | 327 | 598 | 481 | 181 |
| FK866 + KU-55933 | 1140 | 54.3 | 1260 | - | 74.2 | 118 | 334 | 220 | 87.3 | 131 | 198 | 154 | 68.3 | 143 | 22.3 |